Measured values taken from the supplement of paper PMC12823440, “Inhibitors supercharge kinase turnover through native proteolytic circuits” (Nature, 2025).
The list shows a part of the results. The calls rarely recur for the same compound in another form.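 In K562 cells expressing nanoluciferase-fused kinases, luminescence was recorded at 4 h intervals between 2 and 18 h, normalized as percent of control with DMSO at 100% and a positive control at 0%. A significant (2 sigma) signal drop marks a time point as decreased. The authors' rule for a hit is not shown and takes in more than the number of time points.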

Chains of the proteins cited; added tags and fusions are not shown. Lines headed by an entry give the natural chain unless they say otherwise; changes in a name come on top.
UniProt Q15303, whole entry R711C: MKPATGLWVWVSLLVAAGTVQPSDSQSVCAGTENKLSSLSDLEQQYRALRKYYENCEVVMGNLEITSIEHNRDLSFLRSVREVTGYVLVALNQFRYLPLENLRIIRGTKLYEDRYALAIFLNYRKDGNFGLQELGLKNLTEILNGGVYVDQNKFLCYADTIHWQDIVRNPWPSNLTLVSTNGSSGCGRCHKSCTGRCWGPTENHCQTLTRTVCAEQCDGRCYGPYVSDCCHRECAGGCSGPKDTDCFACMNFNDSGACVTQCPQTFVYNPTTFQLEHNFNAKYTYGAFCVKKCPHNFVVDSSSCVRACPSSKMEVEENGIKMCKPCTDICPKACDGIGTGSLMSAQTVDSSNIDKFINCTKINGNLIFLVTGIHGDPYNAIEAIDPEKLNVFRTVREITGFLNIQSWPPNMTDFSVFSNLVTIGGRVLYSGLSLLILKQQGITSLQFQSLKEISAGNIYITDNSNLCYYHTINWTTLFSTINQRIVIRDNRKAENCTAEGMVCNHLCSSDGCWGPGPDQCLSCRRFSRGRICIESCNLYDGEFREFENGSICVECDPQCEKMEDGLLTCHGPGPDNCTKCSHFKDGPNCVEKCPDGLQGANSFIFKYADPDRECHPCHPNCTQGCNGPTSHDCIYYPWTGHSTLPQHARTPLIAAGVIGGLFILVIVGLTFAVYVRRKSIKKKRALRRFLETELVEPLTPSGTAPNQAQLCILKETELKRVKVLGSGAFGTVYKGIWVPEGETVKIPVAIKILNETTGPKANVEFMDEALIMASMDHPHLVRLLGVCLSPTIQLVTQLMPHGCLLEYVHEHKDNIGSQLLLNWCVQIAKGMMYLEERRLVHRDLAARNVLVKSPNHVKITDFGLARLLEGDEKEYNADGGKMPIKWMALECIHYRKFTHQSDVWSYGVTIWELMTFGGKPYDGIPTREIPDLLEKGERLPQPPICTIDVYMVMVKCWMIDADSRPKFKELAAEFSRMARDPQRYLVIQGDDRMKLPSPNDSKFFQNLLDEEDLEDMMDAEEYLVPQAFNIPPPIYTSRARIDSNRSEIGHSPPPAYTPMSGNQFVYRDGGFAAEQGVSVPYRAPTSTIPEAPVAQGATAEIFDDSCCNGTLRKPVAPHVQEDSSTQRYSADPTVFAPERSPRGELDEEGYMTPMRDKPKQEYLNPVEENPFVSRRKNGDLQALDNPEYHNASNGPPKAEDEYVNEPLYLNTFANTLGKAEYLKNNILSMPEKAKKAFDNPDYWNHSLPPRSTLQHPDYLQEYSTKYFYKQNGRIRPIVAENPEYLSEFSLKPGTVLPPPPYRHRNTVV
UniProt P11362, whole entry, looked up: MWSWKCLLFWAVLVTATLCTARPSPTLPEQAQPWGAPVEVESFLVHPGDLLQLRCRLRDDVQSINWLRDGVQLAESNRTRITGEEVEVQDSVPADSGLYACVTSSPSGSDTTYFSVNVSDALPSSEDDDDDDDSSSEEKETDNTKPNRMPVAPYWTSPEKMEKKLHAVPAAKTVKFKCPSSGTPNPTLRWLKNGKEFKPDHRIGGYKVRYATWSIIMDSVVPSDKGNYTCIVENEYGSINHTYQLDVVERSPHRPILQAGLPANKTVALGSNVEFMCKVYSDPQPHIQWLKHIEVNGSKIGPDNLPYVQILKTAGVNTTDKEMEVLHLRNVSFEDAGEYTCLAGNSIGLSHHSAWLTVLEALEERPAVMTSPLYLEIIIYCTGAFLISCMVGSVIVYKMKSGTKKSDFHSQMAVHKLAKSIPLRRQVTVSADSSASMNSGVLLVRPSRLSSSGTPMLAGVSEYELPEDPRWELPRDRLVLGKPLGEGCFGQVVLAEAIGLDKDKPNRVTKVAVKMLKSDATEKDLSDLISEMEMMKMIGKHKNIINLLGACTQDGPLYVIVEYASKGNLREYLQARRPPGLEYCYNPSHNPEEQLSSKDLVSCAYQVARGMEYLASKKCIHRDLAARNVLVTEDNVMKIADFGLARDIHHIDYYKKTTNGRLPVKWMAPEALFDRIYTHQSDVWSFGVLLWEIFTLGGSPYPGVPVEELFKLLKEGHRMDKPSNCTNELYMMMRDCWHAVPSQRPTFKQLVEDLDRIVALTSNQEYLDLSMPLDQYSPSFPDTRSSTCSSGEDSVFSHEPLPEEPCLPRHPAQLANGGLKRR
UniProt P49840: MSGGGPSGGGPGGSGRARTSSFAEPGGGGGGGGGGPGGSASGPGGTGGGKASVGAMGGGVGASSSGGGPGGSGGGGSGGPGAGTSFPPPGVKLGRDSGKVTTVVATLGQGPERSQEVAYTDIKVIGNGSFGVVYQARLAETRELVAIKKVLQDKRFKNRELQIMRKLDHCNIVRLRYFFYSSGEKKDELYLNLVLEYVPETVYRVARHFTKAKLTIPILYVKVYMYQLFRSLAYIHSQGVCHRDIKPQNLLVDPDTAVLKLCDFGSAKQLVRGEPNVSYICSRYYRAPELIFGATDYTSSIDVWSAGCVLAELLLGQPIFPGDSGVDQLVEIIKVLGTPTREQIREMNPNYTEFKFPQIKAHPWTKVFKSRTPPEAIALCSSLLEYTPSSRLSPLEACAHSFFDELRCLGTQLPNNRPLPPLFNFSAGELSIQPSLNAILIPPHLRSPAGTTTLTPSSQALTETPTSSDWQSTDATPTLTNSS
UniProt P14616: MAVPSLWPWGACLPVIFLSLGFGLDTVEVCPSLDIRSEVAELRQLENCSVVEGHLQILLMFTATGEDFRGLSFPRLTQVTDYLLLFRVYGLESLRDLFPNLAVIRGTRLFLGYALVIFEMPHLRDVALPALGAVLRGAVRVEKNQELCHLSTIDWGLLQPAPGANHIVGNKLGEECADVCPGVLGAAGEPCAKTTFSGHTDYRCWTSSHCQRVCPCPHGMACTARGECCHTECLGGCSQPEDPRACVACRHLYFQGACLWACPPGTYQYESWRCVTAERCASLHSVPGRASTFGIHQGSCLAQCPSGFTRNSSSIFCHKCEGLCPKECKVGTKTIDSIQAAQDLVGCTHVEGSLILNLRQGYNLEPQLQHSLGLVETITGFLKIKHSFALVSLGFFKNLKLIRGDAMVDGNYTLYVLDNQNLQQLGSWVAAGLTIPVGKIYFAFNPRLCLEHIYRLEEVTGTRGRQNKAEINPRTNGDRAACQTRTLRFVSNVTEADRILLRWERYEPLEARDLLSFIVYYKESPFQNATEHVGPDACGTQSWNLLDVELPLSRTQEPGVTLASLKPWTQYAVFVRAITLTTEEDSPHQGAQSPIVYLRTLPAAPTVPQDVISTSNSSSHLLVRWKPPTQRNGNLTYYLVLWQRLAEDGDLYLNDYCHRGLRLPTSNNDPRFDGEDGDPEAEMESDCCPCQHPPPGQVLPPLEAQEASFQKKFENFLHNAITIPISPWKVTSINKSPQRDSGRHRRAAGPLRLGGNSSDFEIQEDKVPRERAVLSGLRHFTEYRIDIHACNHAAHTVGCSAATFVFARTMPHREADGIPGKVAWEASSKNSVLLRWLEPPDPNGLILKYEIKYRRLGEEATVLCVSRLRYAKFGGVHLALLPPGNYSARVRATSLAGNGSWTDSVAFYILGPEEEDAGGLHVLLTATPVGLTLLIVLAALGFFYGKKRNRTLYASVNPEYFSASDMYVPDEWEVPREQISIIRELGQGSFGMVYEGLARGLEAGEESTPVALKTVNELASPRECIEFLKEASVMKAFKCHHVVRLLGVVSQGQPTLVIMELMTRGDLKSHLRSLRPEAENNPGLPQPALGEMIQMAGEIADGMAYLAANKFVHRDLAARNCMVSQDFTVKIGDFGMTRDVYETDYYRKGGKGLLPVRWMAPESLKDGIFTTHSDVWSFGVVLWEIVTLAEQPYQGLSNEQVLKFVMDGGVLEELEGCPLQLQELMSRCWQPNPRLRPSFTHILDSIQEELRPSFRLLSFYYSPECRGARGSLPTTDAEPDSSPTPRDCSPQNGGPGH
UniProt P23458: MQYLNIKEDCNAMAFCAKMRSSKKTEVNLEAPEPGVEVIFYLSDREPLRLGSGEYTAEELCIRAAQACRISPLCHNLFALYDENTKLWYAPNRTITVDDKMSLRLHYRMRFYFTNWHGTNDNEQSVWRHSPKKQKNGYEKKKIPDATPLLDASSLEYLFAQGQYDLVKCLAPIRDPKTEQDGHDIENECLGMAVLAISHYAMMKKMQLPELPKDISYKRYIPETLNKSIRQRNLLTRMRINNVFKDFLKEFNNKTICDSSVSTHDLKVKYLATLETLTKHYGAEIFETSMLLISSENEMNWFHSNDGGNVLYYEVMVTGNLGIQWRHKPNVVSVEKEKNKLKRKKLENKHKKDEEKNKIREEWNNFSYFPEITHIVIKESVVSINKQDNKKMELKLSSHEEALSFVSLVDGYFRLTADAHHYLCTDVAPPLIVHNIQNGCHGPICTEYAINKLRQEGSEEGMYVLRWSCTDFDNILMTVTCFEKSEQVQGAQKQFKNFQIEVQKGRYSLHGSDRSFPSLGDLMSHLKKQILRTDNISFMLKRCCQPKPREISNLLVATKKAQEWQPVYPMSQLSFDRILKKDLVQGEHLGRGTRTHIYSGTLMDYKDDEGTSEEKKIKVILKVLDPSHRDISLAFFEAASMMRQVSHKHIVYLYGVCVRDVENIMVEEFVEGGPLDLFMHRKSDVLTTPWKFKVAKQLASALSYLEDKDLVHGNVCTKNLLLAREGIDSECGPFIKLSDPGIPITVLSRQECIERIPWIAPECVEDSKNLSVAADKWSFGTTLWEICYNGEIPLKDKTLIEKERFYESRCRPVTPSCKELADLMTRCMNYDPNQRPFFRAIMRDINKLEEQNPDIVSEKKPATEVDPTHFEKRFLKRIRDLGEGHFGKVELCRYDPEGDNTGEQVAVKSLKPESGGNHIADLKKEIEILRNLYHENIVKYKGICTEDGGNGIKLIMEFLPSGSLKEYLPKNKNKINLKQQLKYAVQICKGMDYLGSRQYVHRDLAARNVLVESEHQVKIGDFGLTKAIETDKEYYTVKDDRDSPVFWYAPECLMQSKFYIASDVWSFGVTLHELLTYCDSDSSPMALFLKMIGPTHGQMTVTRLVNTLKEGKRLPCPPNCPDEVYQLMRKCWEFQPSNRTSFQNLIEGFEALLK
UniProt P53667: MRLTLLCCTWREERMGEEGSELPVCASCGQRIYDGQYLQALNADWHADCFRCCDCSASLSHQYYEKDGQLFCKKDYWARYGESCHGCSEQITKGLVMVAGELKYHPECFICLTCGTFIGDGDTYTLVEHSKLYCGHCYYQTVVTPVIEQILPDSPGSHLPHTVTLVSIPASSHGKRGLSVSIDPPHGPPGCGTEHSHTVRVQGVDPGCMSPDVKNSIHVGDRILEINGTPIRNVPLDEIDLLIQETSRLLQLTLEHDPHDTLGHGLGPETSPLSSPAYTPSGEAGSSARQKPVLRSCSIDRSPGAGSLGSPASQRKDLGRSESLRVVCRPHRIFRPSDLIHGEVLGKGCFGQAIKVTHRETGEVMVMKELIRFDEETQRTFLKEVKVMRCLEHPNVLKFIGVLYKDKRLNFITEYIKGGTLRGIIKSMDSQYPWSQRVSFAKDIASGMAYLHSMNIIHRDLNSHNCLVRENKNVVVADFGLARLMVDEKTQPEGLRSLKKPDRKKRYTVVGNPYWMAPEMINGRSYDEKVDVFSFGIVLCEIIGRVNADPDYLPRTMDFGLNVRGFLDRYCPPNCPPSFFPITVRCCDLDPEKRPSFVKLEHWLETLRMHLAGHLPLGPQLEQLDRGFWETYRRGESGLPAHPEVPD
UniProt P53671: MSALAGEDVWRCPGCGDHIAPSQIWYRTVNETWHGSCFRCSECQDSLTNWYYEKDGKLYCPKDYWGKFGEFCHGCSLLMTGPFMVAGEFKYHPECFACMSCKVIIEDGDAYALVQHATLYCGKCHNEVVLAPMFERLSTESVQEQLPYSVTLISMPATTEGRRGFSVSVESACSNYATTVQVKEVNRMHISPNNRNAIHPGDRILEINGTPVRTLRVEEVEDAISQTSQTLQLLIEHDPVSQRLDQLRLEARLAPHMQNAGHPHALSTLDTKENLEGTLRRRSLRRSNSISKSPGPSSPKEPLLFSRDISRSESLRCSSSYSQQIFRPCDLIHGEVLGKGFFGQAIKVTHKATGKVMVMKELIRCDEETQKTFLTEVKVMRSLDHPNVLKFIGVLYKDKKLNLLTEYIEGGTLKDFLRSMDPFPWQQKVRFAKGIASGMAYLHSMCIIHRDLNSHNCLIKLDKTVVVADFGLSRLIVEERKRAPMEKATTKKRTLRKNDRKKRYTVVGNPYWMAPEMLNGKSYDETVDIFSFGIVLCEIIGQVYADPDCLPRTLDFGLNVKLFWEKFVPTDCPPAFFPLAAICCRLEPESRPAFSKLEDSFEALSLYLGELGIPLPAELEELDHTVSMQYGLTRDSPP

How the values were obtained:
Assay in all cases: number of time points (of 5) at which kinase-Nluc abundance scored as decreased, DMSO-normalised (count); higher = more persistent destabilization
Conditions in all cases: K562; 2-18 h
EPHA2 = EPHA2 (UniProt P29317)
ERBB3 = ERBB3 (UniProt P21860)
[1] = target: ERBB4_R711C (clone: ERBB4_mut) (UniProt Q15303)
ERN1 = ERN1 (UniProt O75460)
FGFR1 = FGFR1 (UniProt P11362)
FGFR2 = FGFR2 (UniProt P21802)
FGFR3 = FGFR3 (UniProt P22607)
FGR = FGR (UniProt P09769)
FLT3 = FLT3 (UniProt P36888)
FYN = FYN (UniProt P06241)
GSK3A = GSK3A (UniProt P49840)
HER2 = HER2 (UniProt P04626)
INSRR = INSRR (UniProt P14616)
IRAK3 = IRAK3 (UniProt Q9Y616)
JAK1 = JAK1 (UniProt P23458)
LCK = LCK (UniProt P06239)
LIMK1 = LIMK1 (UniProt P53667)
LIMK2 = LIMK2 (UniProt P53671)

Measured: number of time points

O=C1c2ccccc2-c2n[nH]c3cccc1c23 (10 µM)
0: EPHA2 | ERBB3 | [1] | ERN1 | FGFR1 | FGFR2 | FGFR3 | FGR | FLT3 | FYN | GSK3A | HER2 | INSRR | IRAK3 | JAK1 | LCK | LIMK1 | LIMK2

COc1cc(C)c(Sc2cnc(NC(=O)c3ccc(CNC(C)C(C)(C)C)cc3)s2)cc1C(=O)N1CCN(C(C)=O)CC1 (stereo not given) (2.5 µM)
0: EPHA2 | ERBB3 | [1] | ERN1 | FGFR1 | FGFR2 | FGFR3 | FGR | FLT3 | FYN | GSK3A | HER2 | INSRR | IRAK3 | JAK1 | LCK | LIMK1 | LIMK2

CN(c1ncccc1CNc1nc(Nc2ccc3c(c2)CC(=O)N3)ncc1C(F)(F)F)S(C)(=O)=O (2.5 µM)
2: FLT3
3: ERBB3 | [1] | FGFR2 | INSRR | IRAK3 | JAK1
0: EPHA2 | ERN1 | FGFR1 | FGFR3 | FGR | FYN | GSK3A | HER2 | LIMK1 | LIMK2

O=c1c(O)c(-c2ccc(O)c(O)c2)oc2cc(O)cc(O)c12 [Quercetin (dihydrate)] (10 µM)
0: EPHA2 | ERBB3 | [1] | ERN1 | FGFR1 | FGFR2 | FGFR3 | FGR | FLT3 | FYN | GSK3A | HER2 | INSRR | IRAK3 | JAK1 | LCK | LIMK1 | LIMK2

COc1nccc(-c2c(-c3ccc(F)cc3)ncn2C2CCC(O)CC2)n1 (stereo not given) (10 µM)
0: EPHA2 | ERBB3 | [1] | ERN1 | FGFR1 | FGFR2 | FGFR3 | FGR | FLT3 | FYN | GSK3A | HER2 | INSRR | IRAK3 | JAK1 | LIMK1 | LIMK2

COc1cc(C=C(C#N)C(N)=O)cc(CSc2nc3ccccc3s2)c1O (10 µM)
0: EPHA2 | ERBB3 | [1] | ERN1 | FGFR1 | FGFR2 | FGFR3 | FGR | FLT3 | FYN | GSK3A | HER2 | INSRR | IRAK3 | JAK1 | LCK | LIMK1 | LIMK2

CCOc1cc2ncc(C#N)c(Nc3ccc(OCc4ccccn4)c(Cl)c3)c2cc1NC(=O)/C=C/CN(C)C [Neratinib] (10 µM)
0: EPHA2 | ERBB3 | [1] | ERN1 | FGFR1 | FGFR2 | FGFR3 | FGR | FLT3 | FYN | GSK3A | INSRR | IRAK3 | JAK1 | LCK | LIMK1 | LIMK2
5: HER2

CC(C)CC(=O)Nc1n[nH]c2c1CN(C(=O)C1CCN(C)CC1)C2(C)C (2.5 µM)
1: FYN
0: EPHA2 | ERN1 | FGFR1 | FGFR3 | FGR | FLT3 | HER2 | INSRR | JAK1 | LIMK1 | LIMK2
3: ERBB3 | [1] | FGFR2 | GSK3A | IRAK3

CCN(CCO)CCCOc1ccc2c(Nc3cc(CC(=O)Nc4cccc(F)c4)[nH]n3)ncnc2c1 [Barasertib-HQPA] (10 µM)
1: [1]
0: EPHA2 | ERBB3 | ERN1 | FGFR1 | FGFR2 | FGFR3 | FGR | FLT3 | FYN | GSK3A | HER2 | INSRR | IRAK3 | JAK1 | LIMK1 | LIMK2

Nc1ncnc2c1c(-c1ccc(Oc3ccccc3)cc1)cn2C1CCCC1 (2.5 µM)
1: INSRR
0: EPHA2 | ERBB3 | [1] | ERN1 | FGFR1 | FGFR2 | FGFR3 | FGR | FLT3 | FYN | GSK3A | HER2 | IRAK3 | JAK1 | LIMK1 | LIMK2

Cc1ccc(NC(=O)Nc2nnc(Sc3ncnc4cc(OCCCN5CCOCC5)ccc34)s2)cc1 (10 µM)
0: EPHA2 | ERBB3 | [1] | ERN1 | FGFR1 | FGFR2 | FGFR3 | FGR | FLT3 | FYN | GSK3A | HER2 | INSRR | IRAK3 | JAK1 | LCK | LIMK1 | LIMK2

Cc1c[nH]c2nccc(Oc3c(F)cc(Nc4cc(Cl)nc(N)n4)cc3F)c12 (10 µM)
4: FLT3 | INSRR
1: [1] | JAK1
2: ERBB3 | HER2
0: EPHA2 | ERN1 | FGFR1 | FGFR2 | FGFR3 | FGR | FYN | GSK3A | IRAK3 | LCK | LIMK1 | LIMK2

COc1cc2c(Nc3ccc(Br)cc3F)ncnc2cc1OCCn1ccnn1 (10 µM)
0: EPHA2 | ERBB3 | [1] | ERN1 | FGFR1 | FGFR2 | FGFR3 | FGR | FLT3 | FYN | GSK3A | HER2 | INSRR | IRAK3 | JAK1 | LCK | LIMK1 | LIMK2

Cc1c(Cn2c(C)nc3c(C(=O)O)cc(N4CCOCC4)cc32)cccc1C(F)(F)F (10 µM)
0: EPHA2 | ERBB3 | [1] | FGFR1 | FGFR2 | FGFR3 | FLT3 | FYN | GSK3A | HER2 | INSRR | IRAK3 | JAK1 | LCK | LIMK1 | LIMK2
